Test results from paper PMC2924311.
No constants are given. Whether binding was seen depends on the method and setting. In cells and extracts the contact can be indirect. Some entries that bind do so weakly or less than the wild type.

The chains behind the UniProt entries cited, without tags or fusion partners.
UniProt O89090: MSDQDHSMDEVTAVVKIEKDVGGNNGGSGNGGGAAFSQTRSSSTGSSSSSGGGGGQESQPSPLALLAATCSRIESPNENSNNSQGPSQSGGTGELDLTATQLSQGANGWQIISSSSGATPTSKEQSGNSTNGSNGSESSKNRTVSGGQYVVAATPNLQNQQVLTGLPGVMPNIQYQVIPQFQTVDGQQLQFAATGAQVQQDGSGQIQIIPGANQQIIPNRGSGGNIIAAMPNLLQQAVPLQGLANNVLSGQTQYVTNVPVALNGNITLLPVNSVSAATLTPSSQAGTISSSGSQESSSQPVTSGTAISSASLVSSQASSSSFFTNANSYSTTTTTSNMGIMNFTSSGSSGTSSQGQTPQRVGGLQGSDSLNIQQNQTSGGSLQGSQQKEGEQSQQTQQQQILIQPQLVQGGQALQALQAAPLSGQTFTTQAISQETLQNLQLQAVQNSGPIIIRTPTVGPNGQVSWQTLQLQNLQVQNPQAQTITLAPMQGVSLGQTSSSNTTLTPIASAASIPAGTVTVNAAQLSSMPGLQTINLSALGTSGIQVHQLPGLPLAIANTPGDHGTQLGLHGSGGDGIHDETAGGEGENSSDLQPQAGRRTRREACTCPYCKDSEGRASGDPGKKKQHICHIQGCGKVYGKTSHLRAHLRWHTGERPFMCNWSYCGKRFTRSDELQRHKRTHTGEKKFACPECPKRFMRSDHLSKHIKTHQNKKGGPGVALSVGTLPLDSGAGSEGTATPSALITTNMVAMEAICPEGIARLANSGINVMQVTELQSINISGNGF
UniProt Q3TKT4: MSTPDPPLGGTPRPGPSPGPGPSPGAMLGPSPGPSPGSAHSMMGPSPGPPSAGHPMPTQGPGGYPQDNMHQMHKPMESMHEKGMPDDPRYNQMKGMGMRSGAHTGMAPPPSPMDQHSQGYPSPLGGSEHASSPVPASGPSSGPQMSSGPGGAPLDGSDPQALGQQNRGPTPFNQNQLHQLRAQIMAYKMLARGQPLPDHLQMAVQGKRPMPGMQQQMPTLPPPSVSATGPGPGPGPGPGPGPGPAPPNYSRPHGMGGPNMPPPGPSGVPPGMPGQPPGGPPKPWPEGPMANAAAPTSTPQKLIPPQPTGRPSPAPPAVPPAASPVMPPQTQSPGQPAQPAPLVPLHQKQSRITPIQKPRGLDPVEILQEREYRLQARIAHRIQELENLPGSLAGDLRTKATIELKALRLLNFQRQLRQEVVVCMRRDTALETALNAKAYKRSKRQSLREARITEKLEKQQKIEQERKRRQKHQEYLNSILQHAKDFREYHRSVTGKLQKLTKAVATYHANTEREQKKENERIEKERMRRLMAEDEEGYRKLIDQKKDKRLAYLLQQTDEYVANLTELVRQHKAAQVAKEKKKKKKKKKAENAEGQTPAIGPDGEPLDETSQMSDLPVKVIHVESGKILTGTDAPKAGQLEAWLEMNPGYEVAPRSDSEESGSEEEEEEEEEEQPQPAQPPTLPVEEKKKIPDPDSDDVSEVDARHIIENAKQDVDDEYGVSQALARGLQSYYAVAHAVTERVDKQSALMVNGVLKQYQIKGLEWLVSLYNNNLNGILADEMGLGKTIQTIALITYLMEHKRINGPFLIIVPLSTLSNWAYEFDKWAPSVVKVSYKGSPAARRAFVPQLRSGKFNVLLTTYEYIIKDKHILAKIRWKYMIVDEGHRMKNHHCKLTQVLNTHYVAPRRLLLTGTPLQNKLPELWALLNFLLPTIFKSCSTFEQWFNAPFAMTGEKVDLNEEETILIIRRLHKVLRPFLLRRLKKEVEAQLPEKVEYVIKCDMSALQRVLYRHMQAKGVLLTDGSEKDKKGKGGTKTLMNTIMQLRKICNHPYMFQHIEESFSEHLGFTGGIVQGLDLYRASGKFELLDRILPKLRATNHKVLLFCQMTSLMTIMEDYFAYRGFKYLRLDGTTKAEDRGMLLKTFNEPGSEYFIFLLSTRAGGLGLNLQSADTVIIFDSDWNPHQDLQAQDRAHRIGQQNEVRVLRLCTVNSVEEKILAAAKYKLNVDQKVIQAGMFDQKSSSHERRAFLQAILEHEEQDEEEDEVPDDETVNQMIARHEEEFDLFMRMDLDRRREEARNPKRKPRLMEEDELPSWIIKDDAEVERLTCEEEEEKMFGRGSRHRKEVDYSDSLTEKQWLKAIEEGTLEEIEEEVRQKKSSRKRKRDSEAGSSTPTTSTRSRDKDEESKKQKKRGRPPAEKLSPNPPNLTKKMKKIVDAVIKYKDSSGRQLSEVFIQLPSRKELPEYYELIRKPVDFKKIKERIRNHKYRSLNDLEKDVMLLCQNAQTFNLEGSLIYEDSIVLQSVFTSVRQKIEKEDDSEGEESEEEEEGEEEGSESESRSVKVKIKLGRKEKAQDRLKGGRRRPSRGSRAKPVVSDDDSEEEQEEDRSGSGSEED

Biological target: transcription factor Sp1 (mouse (endogenous in 4T1, 168FARN and 67NR)) (UniProt O89090)
Assay: co-IP; nuclear extracts of 4T1, 168FARN and 67NR cells in RIPA buffer, pre-cleared with protein A/G agarose; IP overnight at 4°C with antibody against Brg-1 or Sp1 (rabbit IgG as control), protein A/G agarose, washed with RIPA buffer, immunoblot for Brg-1 or Sp1; also 4T1 cells treated with fenretinide for 24 hrs (IP with Sp1 antibody; interaction increased)

binding: binds
Substance: Brg-1 (Brahma-related gene-1), ATPase subunit of the SWI/SNF chromatin remodeling complex (from UniProt Q3TKT4 1-1613)
